Laboratory results from patent US20070218003A1.
No constants are given. Whether binding was seen depends on the method and setting. In cells and extracts the contact can be indirect. Some results given as binding are weak or reduced against the parent protein; the word gives no strength.

The chains behind the UniProt entries cited, without tags or fusion partners. Where a name states a change or a piece, a line headed by the entry shows the natural chain unless it says otherwise. A line that says so, or that is headed by a name, gives the form on record, which may keep a tag or linker. Residues count along the entry.
human LTBP2 with Myc tag (pEF6/ssMyc-hLTBP2) (Q14767, form named): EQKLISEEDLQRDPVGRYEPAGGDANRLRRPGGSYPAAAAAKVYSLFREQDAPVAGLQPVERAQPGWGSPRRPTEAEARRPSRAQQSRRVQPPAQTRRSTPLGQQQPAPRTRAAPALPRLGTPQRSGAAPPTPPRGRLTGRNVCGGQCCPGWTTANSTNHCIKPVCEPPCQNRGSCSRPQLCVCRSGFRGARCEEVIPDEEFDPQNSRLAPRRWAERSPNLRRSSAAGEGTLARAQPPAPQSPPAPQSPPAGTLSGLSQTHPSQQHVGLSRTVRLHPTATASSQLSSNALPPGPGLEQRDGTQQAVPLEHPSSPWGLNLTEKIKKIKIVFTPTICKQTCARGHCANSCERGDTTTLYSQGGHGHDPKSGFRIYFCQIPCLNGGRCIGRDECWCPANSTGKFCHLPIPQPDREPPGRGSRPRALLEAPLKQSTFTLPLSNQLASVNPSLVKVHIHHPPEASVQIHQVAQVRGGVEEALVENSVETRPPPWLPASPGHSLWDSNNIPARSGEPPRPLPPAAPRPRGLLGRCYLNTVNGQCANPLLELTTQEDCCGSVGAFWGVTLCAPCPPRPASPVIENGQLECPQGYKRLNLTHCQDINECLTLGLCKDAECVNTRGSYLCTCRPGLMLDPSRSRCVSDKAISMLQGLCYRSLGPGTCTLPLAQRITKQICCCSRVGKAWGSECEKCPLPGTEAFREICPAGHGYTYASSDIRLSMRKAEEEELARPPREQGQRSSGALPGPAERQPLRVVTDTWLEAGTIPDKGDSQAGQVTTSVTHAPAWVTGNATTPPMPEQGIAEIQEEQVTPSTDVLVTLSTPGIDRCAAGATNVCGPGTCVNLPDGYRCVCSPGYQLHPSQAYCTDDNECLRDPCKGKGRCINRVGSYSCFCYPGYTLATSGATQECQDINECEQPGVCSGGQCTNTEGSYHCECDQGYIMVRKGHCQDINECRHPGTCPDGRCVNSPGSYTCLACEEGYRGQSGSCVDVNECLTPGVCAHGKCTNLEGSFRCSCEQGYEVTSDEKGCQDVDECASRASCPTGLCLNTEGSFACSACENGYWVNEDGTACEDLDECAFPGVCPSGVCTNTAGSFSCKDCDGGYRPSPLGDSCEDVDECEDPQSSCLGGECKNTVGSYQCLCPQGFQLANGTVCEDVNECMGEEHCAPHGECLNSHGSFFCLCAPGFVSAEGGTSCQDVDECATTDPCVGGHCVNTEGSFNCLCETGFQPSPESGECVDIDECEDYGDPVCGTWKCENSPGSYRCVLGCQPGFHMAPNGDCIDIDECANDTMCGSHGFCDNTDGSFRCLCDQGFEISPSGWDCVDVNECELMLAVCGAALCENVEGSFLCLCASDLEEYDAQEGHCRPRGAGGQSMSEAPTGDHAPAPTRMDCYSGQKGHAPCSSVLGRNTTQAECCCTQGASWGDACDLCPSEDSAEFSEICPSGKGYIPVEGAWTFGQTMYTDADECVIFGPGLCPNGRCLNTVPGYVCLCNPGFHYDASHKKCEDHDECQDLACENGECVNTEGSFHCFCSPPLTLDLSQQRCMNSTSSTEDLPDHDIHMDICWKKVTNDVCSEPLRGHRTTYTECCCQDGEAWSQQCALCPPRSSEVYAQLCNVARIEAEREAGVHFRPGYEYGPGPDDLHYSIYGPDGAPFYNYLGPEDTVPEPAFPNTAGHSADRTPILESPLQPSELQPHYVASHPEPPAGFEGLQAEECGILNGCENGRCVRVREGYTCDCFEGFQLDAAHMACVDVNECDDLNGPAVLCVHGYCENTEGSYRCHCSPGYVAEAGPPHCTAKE
UniProt Q9UBX5: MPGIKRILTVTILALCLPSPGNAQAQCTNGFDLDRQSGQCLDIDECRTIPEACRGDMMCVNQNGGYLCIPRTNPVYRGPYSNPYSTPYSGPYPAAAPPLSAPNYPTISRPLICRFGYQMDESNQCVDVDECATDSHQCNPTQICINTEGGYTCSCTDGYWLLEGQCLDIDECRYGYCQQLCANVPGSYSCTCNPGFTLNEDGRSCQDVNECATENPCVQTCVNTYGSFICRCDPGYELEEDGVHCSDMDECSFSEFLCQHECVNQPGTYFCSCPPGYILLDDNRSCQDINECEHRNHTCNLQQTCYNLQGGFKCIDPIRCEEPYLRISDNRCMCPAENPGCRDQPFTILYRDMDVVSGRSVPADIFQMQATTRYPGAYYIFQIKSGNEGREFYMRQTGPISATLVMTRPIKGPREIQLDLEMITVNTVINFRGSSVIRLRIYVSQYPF
UniProt Q5EA62, residues 24-448: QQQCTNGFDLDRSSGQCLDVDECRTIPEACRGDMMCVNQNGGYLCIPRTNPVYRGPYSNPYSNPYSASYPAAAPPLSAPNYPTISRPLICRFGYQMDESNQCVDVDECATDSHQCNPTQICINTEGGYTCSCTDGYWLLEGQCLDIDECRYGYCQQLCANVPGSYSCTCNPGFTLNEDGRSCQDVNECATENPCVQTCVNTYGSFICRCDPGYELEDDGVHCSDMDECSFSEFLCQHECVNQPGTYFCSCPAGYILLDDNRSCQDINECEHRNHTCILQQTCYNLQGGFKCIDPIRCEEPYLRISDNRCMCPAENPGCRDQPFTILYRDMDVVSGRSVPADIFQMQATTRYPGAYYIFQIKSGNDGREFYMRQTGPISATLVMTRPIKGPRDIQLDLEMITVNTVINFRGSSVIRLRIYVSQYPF
UniProt Q28019, residues 36-1842: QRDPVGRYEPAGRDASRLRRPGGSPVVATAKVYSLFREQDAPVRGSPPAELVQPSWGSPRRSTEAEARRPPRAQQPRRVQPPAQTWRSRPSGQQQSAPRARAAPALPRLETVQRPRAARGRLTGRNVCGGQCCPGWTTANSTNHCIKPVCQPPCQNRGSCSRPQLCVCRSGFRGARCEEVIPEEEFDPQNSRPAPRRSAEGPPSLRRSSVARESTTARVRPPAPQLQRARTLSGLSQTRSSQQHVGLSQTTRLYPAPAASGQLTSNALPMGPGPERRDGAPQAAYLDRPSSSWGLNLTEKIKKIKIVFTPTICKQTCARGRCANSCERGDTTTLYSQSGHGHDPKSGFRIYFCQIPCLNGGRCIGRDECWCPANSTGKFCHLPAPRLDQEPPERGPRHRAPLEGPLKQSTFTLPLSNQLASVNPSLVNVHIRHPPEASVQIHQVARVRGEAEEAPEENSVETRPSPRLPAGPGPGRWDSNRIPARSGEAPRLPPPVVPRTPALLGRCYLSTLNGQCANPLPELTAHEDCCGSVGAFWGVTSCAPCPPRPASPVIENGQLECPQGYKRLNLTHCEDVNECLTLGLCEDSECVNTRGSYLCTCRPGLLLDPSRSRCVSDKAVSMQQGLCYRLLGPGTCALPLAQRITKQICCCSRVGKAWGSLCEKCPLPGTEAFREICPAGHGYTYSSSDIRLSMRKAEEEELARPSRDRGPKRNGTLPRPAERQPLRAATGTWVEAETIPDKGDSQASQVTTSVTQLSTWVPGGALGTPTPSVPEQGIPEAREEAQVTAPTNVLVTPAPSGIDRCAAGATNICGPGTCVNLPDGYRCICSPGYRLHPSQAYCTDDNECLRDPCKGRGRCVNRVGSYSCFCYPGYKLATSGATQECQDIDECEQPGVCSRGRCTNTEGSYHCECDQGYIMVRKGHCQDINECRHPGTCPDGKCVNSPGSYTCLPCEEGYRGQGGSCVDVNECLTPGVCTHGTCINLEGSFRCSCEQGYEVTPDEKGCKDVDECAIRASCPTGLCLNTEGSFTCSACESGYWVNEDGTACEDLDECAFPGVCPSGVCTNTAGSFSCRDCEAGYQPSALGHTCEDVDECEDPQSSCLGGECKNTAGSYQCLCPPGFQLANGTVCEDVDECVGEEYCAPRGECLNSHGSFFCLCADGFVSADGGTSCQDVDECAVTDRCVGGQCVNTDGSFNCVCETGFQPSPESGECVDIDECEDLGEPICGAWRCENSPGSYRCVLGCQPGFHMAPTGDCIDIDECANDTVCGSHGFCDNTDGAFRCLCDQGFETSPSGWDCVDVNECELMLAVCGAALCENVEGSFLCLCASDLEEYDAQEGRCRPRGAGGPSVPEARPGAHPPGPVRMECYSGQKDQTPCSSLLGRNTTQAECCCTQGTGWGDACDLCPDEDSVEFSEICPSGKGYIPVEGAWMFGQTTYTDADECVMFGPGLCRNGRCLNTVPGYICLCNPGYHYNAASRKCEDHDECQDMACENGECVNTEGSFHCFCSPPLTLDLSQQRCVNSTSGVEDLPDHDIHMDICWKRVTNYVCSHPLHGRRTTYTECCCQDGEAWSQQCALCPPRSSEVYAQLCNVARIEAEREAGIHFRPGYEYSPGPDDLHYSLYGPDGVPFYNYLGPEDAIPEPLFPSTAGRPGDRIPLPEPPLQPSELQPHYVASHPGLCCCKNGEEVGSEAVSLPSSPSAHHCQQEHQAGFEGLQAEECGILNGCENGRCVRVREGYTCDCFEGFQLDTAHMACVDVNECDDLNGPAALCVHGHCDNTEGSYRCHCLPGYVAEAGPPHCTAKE

What was measured:
[1] = molecular target: human LTBP2 with Myc tag (pEF6/ssMyc-hLTBP2) (human) (UniProt Q14767); assay: co-precipitation with anti-FLAG antibody, anti-Myc Western blot
[2] = molecular target: human DANCE construct with Myc tag (human) (UniProt Q9UBX5); assay: as above
[3] = molecular target: human DANCE construct with Myc tag (human) (UniProt Q9UBX5); assay: discussion of the co-precipitation with deletion mutants
[4] = molecular target: human LTBP2 with Myc tag (pEF6/ssMyc-hLTBP2) (human) (UniProt Q14767); assay: discussion of the pull-down and co-precipitation experiments
[5] = molecular target: DANCE in the culture supernatant of bovine arterial smooth muscle cells (bovine) (UniProt Q5EA62); assay: pull-down with anti-FLAG agarose from 35S-labelled bovine smooth muscle cell supernatant, autoradiography
[6] = molecular target: LTBP2 in the culture supernatant of bovine arterial smooth muscle cells (bovine) (UniProt Q28019); assay: as above

Measured: binding

human DANCE deltaC with C-terminal FLAG and 6xHis (pEF6-hDANCE ΔC-FLAG) (from UniProt Q9UBX5 24-316)
binds: [1]

human DANCE with C-terminal FLAG tag and 6xHis tag (pEF6-hDANCE-FLAG) (from UniProt Q9UBX5 24-448)
binds: all assays above
